Results on 1 compound are retold here after PMC6158189, “A pharmacological probe identifies cystathionine β-synthase as a new negative regulator for ferroptosis” (Cell Death & Disease, 2018).

This data set can be described thus: H2S-donor (NaHS) interfering assay. The conditions noted are these: 100 μM NaHS, no CBS.

As to `Cn1nc(Cc2ccccc2)nc2c(=O)n(C)c(=O)nc1-2` [CH004, 3-benzyl-1,6-dimethylpyrimido[5,4-e][1,2,4]triazine-5,7(1H,6H)-dione], the “concentration from which a significant amount of H2S is trapped” value is at least 50 µM. Also, the “absorption of H2S released from NaSH” value (1 or 10 μM compound) was “did not absorb much”.
